Reference: PubChem BioAssay AID652259 (Drosophila RNAi Screening Center, 2013)

- Purpose: 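Genome-wide hunt for genes that control Wingless pathway activity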 (primary screen)
- Cells: Drosophila clone 8 imaginal disc epithelial cells
- Reagents: long dsRNA against Drosophila genes
- Challenge: pathway stimulated by co-transfected Wingless expression plasmid
- Read-out: 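Dual luciferase reads per well after Wingless plasmid stimulation: reporter firefly light and Renilla control light; activity is firefly divided by Renilla, a ratio not deposited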
- Scale: firefly reporter light: higher = more Wg reporter light, before normalisation; Renilla control light: higher = more transfected or surviving cells
- Call rule: 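Strong candidates differ from their plate mean by at least two out of four per-plate statistical tests; weak candidates meet just one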
- Meaning of the calls: active = candidate regulator (raises or lowers reporter); inactive = not a candidate
The deposit covers about 22,000 reagents; below is a random part of those with a known target gene and a result. Of all reagents, 233 (1.1%) are marked active. 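Light values are raw, unnormalised plate reads; the ratio scores behind the reporter calls were not deposited.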 No sequences are given here. Not stated in the record: the amount of reagent, the time to read-out, the dose of the treatment.

For iPLA2-VIA (GeneID 39160) [DRSC10699], what does the deposit list?
firefly reporter light, replicate 1: 5579; Renilla control light, replicate 1: 2256; outcome: inactive

What is on record for Spc25 (GeneID 41585) [DRSC14164]?
firefly reporter light, replicate 1: 20648; Renilla control light, replicate 1: 2733; outcome: inactive

What is on record for CG7963 (GeneID 41001) [DRSC16355]?
firefly reporter light, replicate 1: 15056; Renilla control light, replicate 1: 3205; outcome: inactive

How did the screen score woc (GeneID 47249) [DRSC15928]?
firefly reporter light, replicate 1: 4052; firefly reporter light, replicate 2: 7559; Renilla control light, replicate 1: 708; Renilla control light, replicate 2: 1168; outcome: inactive

What is on record for CG15865 (GeneID 32641) [DRSC19733]?
firefly reporter light, replicate 1: 18843; Renilla control light, replicate 1: 7178; outcome: inactive

With Ube4B (GeneID 34699) [DRSC03277], what does the deposit list?
firefly reporter light, replicate 1: 7712; Renilla control light, replicate 1: 2176; outcome: inactive

How did the screen score Pal1 (GeneID 36033) [DRSC06106]?
firefly reporter light, replicate 1: 6707; Renilla control light, replicate 1: 2088; outcome: inactive

For Spag1 (GeneID 43239) [DRSC15331], how do the results read?
firefly reporter light, replicate 1: 7578; Renilla control light, replicate 1: 2905; outcome: inactive

With Or88a (GeneID 41715) [DRSC16770], how do the results read?
firefly reporter light, replicate 1: 12304; Renilla control light, replicate 1: 3619; outcome: inactive

With betaNACtes3 (GeneID 326224) [DRSC20183], how do the results read?
firefly reporter light, replicate 1: 24664; Renilla control light, replicate 1: 10180; outcome: inactive

Which result is listed for PolI (GeneID 40965) [DRSC16267]?
firefly reporter light, replicate 1: 17153; Renilla control light, replicate 1: 4055; outcome: inactive

How did the screen score CG34174 (GeneID 5740699) [DRSC00101]?
firefly reporter light, replicate 1: 18071; Renilla control light, replicate 1: 13241; outcome: inactive

For bcn92 (GeneID 31186) [DRSC18741], what was measured?
firefly reporter light, replicate 1: 22098; Renilla control light, replicate 1: 20368; outcome: inactive

Which result is listed for CG8281 (GeneID 38880) [DRSC10976]?
firefly reporter light, replicate 1: 1307; firefly reporter light, replicate 2: 7146; Renilla control light, replicate 1: 1460; Renilla control light, replicate 2: 3605; outcome: inactive

Entries above whose gene name begins with S or s:
Spc25 (GeneID 41585) [DRSC14164] — firefly reporter light, replicate 1 = 20648; Renilla control light, replicate 1 = 2733; outcome = inactive
Spag1 (GeneID 43239) [DRSC15331] — firefly reporter light, replicate 1 = 7578; Renilla control light, replicate 1 = 2905; outcome = inactive

Additional entries follow.
Which result is listed for CG3288 (GeneID 40307) [DRSC11745]?
firefly reporter light, replicate 1: 17826; Renilla control light, replicate 1: 5597; outcome: inactive

What is on record for CG15368 (GeneID 31861) [DRSC18040]?
firefly reporter light, replicate 1: 16171; Renilla control light, replicate 1: 4372; outcome: inactive

For CNT1 (GeneID 35915) [DRSC06082], what was measured?
firefly reporter light, replicate 1: 2517; firefly reporter light, replicate 2: 8272; Renilla control light, replicate 1: 939; Renilla control light, replicate 2: 3120; outcome: inactive

How did the screen score DCTN3-p24 (GeneID 46074) [DRSC04592]?
firefly reporter light, replicate 1: 13622; Renilla control light, replicate 1: 2956; outcome: inactive

Which result is listed for CG32588 (GeneID 318101) [DRSC22285]?
firefly reporter light, replicate 1: 4.76e5; firefly reporter light, replicate 2: 3.83e5; Renilla control light, replicate 1: 1.37e5; Renilla control light, replicate 2: 1.31e5; outcome: inactive

Which result is listed for CG13377 (GeneID 30972) [DRSC18622]?
firefly reporter light, replicate 1: 18545; Renilla control light, replicate 1: 13376; outcome: inactive

For eIF3l (GeneID 39386) [DRSC10530], how do the results read?
firefly reporter light, replicate 1: 9888; Renilla control light, replicate 1: 2656; outcome: inactive

Which result is listed for fs(1)M3 (GeneID 45994) [DRSC18381]?
firefly reporter light, replicate 1: 2551; firefly reporter light, replicate 2: 7801; Renilla control light, replicate 1: 877; Renilla control light, replicate 2: 2870; outcome: inactive

For Tmlh (GeneID 42421) [DRSC15563], what was measured?
firefly reporter light, replicate 1: 15298; Renilla control light, replicate 1: 3539; outcome: inactive

How did the screen score CG15712 (GeneID 36843) [DRSC06583]?
firefly reporter light, replicate 1: 5905; Renilla control light, replicate 1: 4002; outcome: inactive

What is on record for Slob (GeneID 34038) [DRSC02296]?
firefly reporter light, replicate 1: 2642; firefly reporter light, replicate 2: 7194; Renilla control light, replicate 1: 467; Renilla control light, replicate 2: 3612; outcome: inactive

What did the screen give for Slob (GeneID 34038) [DRSC03436]?
firefly reporter light, replicate 1: 11556; Renilla control light, replicate 1: 4656; outcome: inactive
